These are yes or no findings as the source states them, for the method shown. In cells and extracts the contact can be indirect. Some binding calls cover weakened binding; strength is not graded here.
Target: PsaB fused with His20-tag after the third residue from the N-terminus (Chlamydomonas reinhardtii) (UniProt P09144)
Assay: pull-down; His20-PsaB from α-DDM solubilized thylakoids on a TALON metal affinity column, eluted with 150 mM imidazole, then sucrose density gradient; SDS-PAGE and Western blot of elution, monomer and dimer fractions

Sequences of proteins named here, by UniProt entry; tags and fusion partners are left off.
UniProt P09144: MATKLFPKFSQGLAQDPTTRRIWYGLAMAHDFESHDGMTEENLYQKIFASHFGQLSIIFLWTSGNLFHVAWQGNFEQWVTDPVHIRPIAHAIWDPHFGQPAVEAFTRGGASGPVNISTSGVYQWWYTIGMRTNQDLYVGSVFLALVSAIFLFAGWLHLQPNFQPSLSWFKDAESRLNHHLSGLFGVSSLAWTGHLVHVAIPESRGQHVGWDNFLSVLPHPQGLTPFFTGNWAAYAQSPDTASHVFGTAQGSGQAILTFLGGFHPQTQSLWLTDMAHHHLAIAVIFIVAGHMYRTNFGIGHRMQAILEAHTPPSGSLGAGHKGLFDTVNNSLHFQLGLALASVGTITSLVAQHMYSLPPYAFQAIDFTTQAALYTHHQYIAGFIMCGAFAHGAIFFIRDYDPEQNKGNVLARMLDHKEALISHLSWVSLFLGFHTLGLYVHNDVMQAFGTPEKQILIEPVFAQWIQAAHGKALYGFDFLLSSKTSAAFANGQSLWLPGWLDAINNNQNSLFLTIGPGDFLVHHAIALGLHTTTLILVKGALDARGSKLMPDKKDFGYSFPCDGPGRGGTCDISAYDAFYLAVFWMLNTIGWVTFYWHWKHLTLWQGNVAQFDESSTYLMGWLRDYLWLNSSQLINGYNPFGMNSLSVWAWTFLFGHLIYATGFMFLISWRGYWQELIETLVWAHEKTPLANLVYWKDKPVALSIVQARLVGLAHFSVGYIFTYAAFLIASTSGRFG

| binding | Binder |
| --- | --- |
| binds | PsaD (protein, UniProt Q39615 36-196) EAEAAPAAAKKAAEKPAWTVPTLNPDTPSPIFGGSTGGLLRKAQTEEFYVITWEAKKEQIFEMPTGGAAIMRQGPNLLKFGKKEQCLALTTQLRNKFKLTPCFYRVFPDGKVQYLHPADGVYPEKVNAGRVGANQNMRRIGQNVNPIKVKFSGRMMSPAEI |
| binds | PsaG (protein, UniProt P14224 31-126) ALDPQIVISGSTAAFLAIGRFVFLGYQRREANFDSTVGPKTTGATYFDDLQKNSTIFATNDPAGFNIIDVAGWGALGHAVGFAVLAINSLQGANLS |
| binds | PsaF (protein, UniProt P12356 63-227) DIAGLTPCSESKAYAKLEKKELKTLEKRLKQYEADSAPAVALKATMERTKARFANYAKAGLLCGNDGLPHLIADPGLALKYGHAGEVFIPTFGFLYVAGYIGYVGRQYLIAVKGEAKPTDKEIIIDVPLATKLAWQGAGWPLAAVQELQRGTLLEKEENITVSPR |
